# According to PubChem BioAssay AID1347075 (National Center for Advancing Translational Sciences (NCATS), 2019):
# Hit rate of the full screen: of about 400,000 compounds, about 5,500 (1.4%) were called active. Inconclusive results, whose numbers are uncertain, are shown with a selection of clear calls. Calls follow the shape of the dose curve; as a rule, active = well fitted cell-killing curve with a large enough effect; inconclusive = small, poorly fitted or top-dose-only effect, or effect the other way; inactive = flat fitted curve, though single readings scatter. Potencies beside an inconclusive call are fits to weak or partial responses and may not hold up.
# Test: qHTS assay for MDR1-selective chemotherapeutics: Primary screen using the parental adenocarcinoma cell KB-3-1; also: nearly all actives have a fitted effect of over 60% in size
# Conditions: KB-3-1 viability, CellTiter-Glo ATP luminescence, 72 h; activity change, negative = cytotoxic: at 46.1 µM (top of the series)
# Procedure, shortened: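 KB-3-1 cells, DMEM (no phenol red) + 10% FBS; compound by pin transfer, 72 h, 37 °C. Readout: CellTiter-Glo luminescence after 10 min. Data normalized, curve-fitted.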
# % is scaled to controls: 0 for no effect and ±100 for the full control effect; potency is read from the fitted curve at half-maximal effect.
SMILES,Potency,"activity change, negative = cytotoxic"
Cc1ccccc1-c1ncnn1-c1sc2c(c1C#N)CCCCC2,inactive,–
Cc1cccc(Cn2c(O)c(N=NC(=S)Nc3ccccc3F)c3ccccc32)c1,"inconclusive: 29.1 µM [cytotoxic, single point]",–
N#Cc1cnn2c1nc(N1CCCCC1)c1ccccc12,"inconclusive: 20.6 µM [cytotoxic, single point]",–
COCc1cc(CN2CCCC2)c(O)c2ncccc12,"inconclusive: 23.1 µM [cytotoxic, single point]",–
CC(=O)N/C(=C\c1ccccc1)C(=O)Nc1ccccc1C,–,inconclusive: 0.299%
CCN1CCN(c2ccc(Cl)cc2NC(=O)c2ccco2)CC1,"inconclusive: 4.61 µM [cytotoxic, full curve, poor fit]",–
CC1(C)CSC(=NCc2ccccc2)N1C(=O)c1cccc([N+](=O)[O-])c1,inactive,–
COc1cccc(-c2noc(-c3ccc(Br)o3)n2)c1,inactive,–
CCc1ccc(NC(=O)Cc2cn(C)c3ccccc23)cc1,"inconclusive: 9.2 µM [cytotoxic, partial curve, poor fit]",–
COc1cc(CNCc2ccc(OC)c3ccccc23)cc(OC)c1OC,"inconclusive: 5.17 µM [cytotoxic, partial curve, poor fit]",–
CC(C)(C)C(=O)/C=c1\s/c(=C\c2ccc(-c3ccc([N+](=O)[O-])cc3)o2)c(=O)n1CC(=O)NC(N)=O,"inconclusive: 9.2 µM [rising, partial curve, poor fit]",–
NC1C2CN(c3nc4c(cc3F)c(=O)c(C(=O)O)cn4-c3ccc(F)cc3F)CC12 (stereo unspecified),"inconclusive: 0.0092 µM [rising, full curve, poor fit]",–
CN1CCN(C(=O)CCN2C(=O)/C(=C/c3ccc(F)cc3)SC2=S)CC1,active: 20.6 µM,–
Cn1c(N)c(C(C[N+](=O)[O-])c2c(F)cccc2Cl)c(=O)n(C)c1=O (stereo unspecified),"inconclusive: 29.1 µM [cytotoxic, single point]",–
CC(=O)Nc1ccc(S(=O)(=O)NCCOc2ccc(Cl)cc2C)cc1,active: 8.2 µM,–
c1ccc(-c2c[n+]3c(n2-c2ccccc2)SCC3)cc1,active: 3.26 µM,–
O=C(C1CCC1)N1CCc2cc(S(=O)(=O)NCCN3CCN(c4ccccc4F)CC3)ccc21,"inconclusive: 29.1 µM [cytotoxic, single point]",–
Cc1cccc(-c2ccc3c(c2)C2CC3CCN2Cc2ccc3c(c2)OCO3)c1 (stereo unspecified),"inconclusive: 18.4 µM [cytotoxic, partial curve, poor fit]",–
CN1c2ccccc2C(O)=C(C(=S)Nc2ccc(F)c(Cl)c2)S1(=O)=O,active: 16.4 µM,–
CC(C)(C)C(=O)C[n+]1ccccc1,inactive,–
O=C(Nc1ccccc1)Nc1ncc([N+](=O)[O-])s1,active: 18.4 µM,–
Nc1nc(-c2ccc3c(c2)CCC(=O)N3)cs1,active: 5.17 µM,–
Cc1ccc(NC(=O)/C=C/c2ccc([N+](=O)[O-])s2)cc1,"inconclusive: 25.9 µM [cytotoxic, partial curve, poor fit]",–
COc1cccc(NC(=O)C2CCN(S(=O)(=O)c3ccc4c(c3)NC(=O)C(C)S4)CC2)c1 (stereo unspecified),"inconclusive: 23.1 µM [cytotoxic, single point]",–

# As entered above:
# O=C(C1CCC1)N1CCc2cc(S(=O)(=O)NCCN3CCN(c4ccccc4F)CC3)ccc21 – Potency: inconclusive: 29.1 µM [cytotoxic, single point]
# COc1cc(CNCc2ccc(OC)c3ccccc23)cc(OC)c1OC – Potency: inconclusive: 5.17 µM [cytotoxic, partial curve, poor fit]
# CN1c2ccccc2C(O)=C(C(=S)Nc2ccc(F)c(Cl)c2)S1(=O)=O – Potency: active: 16.4 µM

# (next part)

SMILES,Potency,"activity change, negative = cytotoxic"
CC(C(=O)c1ccc(Br)cc1)[n+]1cccc2ccccc21 (stereo unspecified),"inconclusive: 16.4 µM [cytotoxic, single point]",–
Cc1ccc(S(=O)(=O)N2CCOCC2)cc1NC(=O)COC(=O)Cn1c(C)csc1=O,inactive,–
COc1cc(Br)c(CNc2cc(C)ccc2C)cc1OC,"inconclusive: 23.1 µM [cytotoxic, single point]",–
Cc1ccc(OCCCN2CCC(C(O)(c3ccccc3)c3ccccc3)CC2)cc1,"inconclusive: 25.9 µM [cytotoxic, single point]",–
COC(=O)/C=C1\OCc2c(F)cccc21,inactive,–
CCOC(=O)c1ccc(NC(=O)CN(c2ccc(C)cc2)S(=O)(=O)c2c(C)noc2C)cc1,"inconclusive: 18.4 µM [cytotoxic, single point]",–
C(=C\c1nc2ccccc2s1)/c1ccc2c(c1)OCO2,"inconclusive: 29.1 µM [cytotoxic, single point]",–
O=[N+]([O-])c1cccc(/C=N\N=C2c3ccccc3-c3ccccc32)c1O,"inconclusive: 29.1 µM [cytotoxic, single point]",–
O=C(NCc1cc([N+](=O)[O-])ccc1O)c1cccnc1Sc1ccccc1Cl,"inconclusive: 29.1 µM [cytotoxic, single point]",–
Cc1ccc(NC(=S)N2CCCCCC2)c(C)c1,inactive,–
CC(C)CC1Nc2ncnc(N3CCCCC3)c2N(Cc2ccc(Br)cc2)C1=O (stereo unspecified),"inconclusive: 29.1 µM [cytotoxic, single point]",–
C=CCN1N=C(/C=C/c2ccc(OC)cc2)CCC1=O,inactive,–
CCCCCCCOc1ccc(C(=O)Nc2cccnc2)cc1,"inconclusive: 29.1 µM [cytotoxic, single point]",–
COc1ccccc1Cc1c(-c2ccc(Cl)cc2)nc2c(C)cc(Br)cn12,active: 16.4 µM,–
COc1ccc(OCCC(=O)NCCN2CCOCC2)cc1,"inconclusive: 29.1 µM [cytotoxic, single point]",–
CCOCCCNC(=O)c1cc2c(=O)n(CC)c3ccccc3c2s1,"inconclusive: 25.9 µM [cytotoxic, partial curve, poor fit]",–
COc1ccc(C2/C(=C(\O)c3ccc4c(c3)OCCO4)C(=O)C(=O)N2CCCn2ccnc2)cc1 (stereo unspecified),"inconclusive: 16.4 µM [rising, single point]",–
COc1ccc(CC2S/C(=N/N=C/c3ccccc3O)NC2=O)cc1 (stereo unspecified),"inconclusive: 29.1 µM [cytotoxic, single point]",–
CCCc1cc(N2CCN(c3cc(Cl)ccc3C)CC2)n2cnnc2n1,"inconclusive: 20.6 µM [cytotoxic, single point]",–
CCN(CC)S(=O)(=O)c1ccc(N2CCCC2)c(NS(=O)(=O)c2ccc(OC)cc2)c1,inactive,–
Cc1c(Cl)c([N+](=O)[O-])nn1CCCC(=O)Nc1cc(Cl)ccc1Cl,"inconclusive: 29.1 µM [cytotoxic, single point]",–
O=C(CCSc1ccc(Br)cc1)c1ccc(O)cc1,inactive,–
COc1ccc(CC(=O)c2c(O)cc(O)cc2O)cc1OC,"inconclusive: 20.6 µM [cytotoxic, partial curve, poor fit]",–
COc1cccc(CN2CCC2(C)C(=O)Nc2cccc3cccnc23)c1F (stereo unspecified),active: 7.31 µM,–

SMILES,Potency,"activity change, negative = cytotoxic"
CCC1=[N+](CC(=O)c2ccc(C)cc2)CCn2c(C)ccc21,active: 18.4 µM,–
COc1ccc(CNC(=O)CSc2nn3c(=O)c(C(C)(C)C)nnc3s2)cc1OC,inactive,–
COC(=O)C(C(=O)Nc1cc(C)on1)C1CCCCCC1 (stereo unspecified),"inconclusive: 29.1 µM [cytotoxic, single point]",–
O=C(NCc1ccc(Cl)cc1)c1cccc(NC(=O)c2ccccc2)c1,"inconclusive: 29.1 µM [cytotoxic, single point]",–
Cc1ccc(NC(=O)Cc2ccc(Cl)c(Cl)c2)cc1S(=O)(=O)N(C)C,active: 23.1 µM,–
CCOc1ccc(CCNC(=O)CN2C(=O)COc3ccc(S(=O)(=O)N4CCC(C)CC4)cc32)cc1,–,inconclusive: -85.1%
Cc1ccc(S(=O)(=O)N2CCCC2)cc1C(=O)NCC(C)(C)N1CCOCC1,inactive,–
CC(C)(C)c1ccc(OCCC(=O)Nc2ccc(N3CCOCC3)cc2N2CCOCC2)cc1,inactive,–
Cc1cc(C)cc(Nc2cc(-c3ccccc3)nc(C)n2)c1,inactive,–
COc1ccc(C2CC(=O)Oc3c(C(C)C)ccc(C)c32)cc1 (stereo unspecified),"inconclusive: 29.1 µM [cytotoxic, single point]",–
CCOC(=O)c1[nH]c2ccc(Br)cc2c1NC(=O)CCN1CCC(C(=O)OCC)CC1,"inconclusive: 29.1 µM [cytotoxic, single point]",–
CCCCN(C)c1nnc(NC(=O)Nc2cccc(C(C)=O)c2)s1,"inconclusive: 2.06 µM [cytotoxic, full curve]",–
O=C(NCc1ccc(OC(F)(F)F)cc1)C1CC(c2ccc(C(F)(F)F)cc2)=NO1 (stereo unspecified),"inconclusive: 18.4 µM [cytotoxic, single point]",–
O=C(Cc1csc(-c2cccc(Cl)c2)n1)Nc1cccc(S(=O)(=O)NC2=NCCC2)c1,"inconclusive: 0.013 µM [cytotoxic, full curve]",–
COc1ccc(C(=O)N2CCCC(c3nc(-c4cc(OC)c(OC)c(OC)c4)no3)C2)cc1 (stereo unspecified),inactive,–
Cc1cc(-c2ccco2)c(C#N)c2nc3ccccc3n12,"inconclusive: 7.31 µM [rising, partial curve]",–
Cc1ccc(S(=O)(=O)N(C)C)cc1NC(=O)CSc1nnc(C2CC2)n1C1CC1,inactive,–
CCn1c2ccccc2c2cc(NC(=O)c3cc(OC)c(OC)c(OC)c3)ccc21,active: 0.58 µM,–
COc1ccc(-n2ncc3c(N4CCN(c5cccc(C)c5)C(C)C4)ncnc32)cc1 (stereo unspecified),active: 20.6 µM,–
CN(c1ccc(OCC(=O)Nc2ccc3[nH]c(=O)[nH]c3c2)cc1)S(=O)(=O)c1ccc(Cl)cc1,"inconclusive: 18.4 µM [cytotoxic, single point]",–
O=C1C(=O)c2ccccc2C(O)=C1C1CCC(c2ccc(Cl)cc2)CC1 (stereo unspecified),–,inconclusive: 0%
Cc1ccc(CN=C(N)Nc2nc(C)cc(C)n2)cc1,active: 2.59 µM,–
C[C@@H]1CCCCCCCCC(=O)OCCN(C(=O)OC(C)(C)C)[C@H](C)CCCCCCCCC(=O)OCCN(C(=O)OC(C)(C)C)[C@H](C)CCCCCCCCC(=O)OCCN(C(=O)OC(C)(C)C)[C@H](C)CCCCCCCCC(=O)OCCN1C(=O)OC(C)(C)C,inactive,–
